Laboratory results taken from publication PMC3743401.
Results are given in words; binding and its absence hold for the method and conditions named. In cells and extracts the contact can be indirect. Here binding means that the protein was enriched with, or labelled near, the bait; the list need not be complete.

Sequences of proteins named here, by UniProt entry; tags and fusion partners are left off.
UniProt Q9Y6K9: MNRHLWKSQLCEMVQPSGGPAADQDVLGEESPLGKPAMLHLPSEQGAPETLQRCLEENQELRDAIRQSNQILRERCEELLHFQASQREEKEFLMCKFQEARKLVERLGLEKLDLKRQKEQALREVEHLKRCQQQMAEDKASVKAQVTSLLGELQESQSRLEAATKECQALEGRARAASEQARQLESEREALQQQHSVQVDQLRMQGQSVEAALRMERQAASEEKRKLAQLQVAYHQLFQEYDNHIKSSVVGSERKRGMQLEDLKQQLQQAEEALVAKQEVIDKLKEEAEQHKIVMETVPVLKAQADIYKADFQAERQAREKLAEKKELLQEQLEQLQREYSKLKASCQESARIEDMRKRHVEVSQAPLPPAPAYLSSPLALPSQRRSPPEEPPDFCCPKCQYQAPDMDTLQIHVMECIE
UniProt Q07832: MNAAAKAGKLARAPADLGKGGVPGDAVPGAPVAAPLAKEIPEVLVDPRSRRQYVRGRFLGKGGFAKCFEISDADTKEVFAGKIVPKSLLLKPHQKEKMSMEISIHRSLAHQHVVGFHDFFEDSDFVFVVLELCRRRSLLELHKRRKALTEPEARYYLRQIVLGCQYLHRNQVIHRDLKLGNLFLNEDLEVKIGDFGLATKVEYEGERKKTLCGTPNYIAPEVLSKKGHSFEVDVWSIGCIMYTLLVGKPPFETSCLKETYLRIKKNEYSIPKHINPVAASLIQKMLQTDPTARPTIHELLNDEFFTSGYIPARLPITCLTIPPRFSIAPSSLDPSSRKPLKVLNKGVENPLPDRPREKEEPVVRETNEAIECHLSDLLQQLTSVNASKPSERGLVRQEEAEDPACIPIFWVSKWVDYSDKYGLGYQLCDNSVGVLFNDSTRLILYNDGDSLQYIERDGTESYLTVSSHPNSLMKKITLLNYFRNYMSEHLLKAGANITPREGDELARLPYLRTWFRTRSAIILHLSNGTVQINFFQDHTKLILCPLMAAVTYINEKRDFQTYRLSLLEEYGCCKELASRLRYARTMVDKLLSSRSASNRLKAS
UniProt Q62210: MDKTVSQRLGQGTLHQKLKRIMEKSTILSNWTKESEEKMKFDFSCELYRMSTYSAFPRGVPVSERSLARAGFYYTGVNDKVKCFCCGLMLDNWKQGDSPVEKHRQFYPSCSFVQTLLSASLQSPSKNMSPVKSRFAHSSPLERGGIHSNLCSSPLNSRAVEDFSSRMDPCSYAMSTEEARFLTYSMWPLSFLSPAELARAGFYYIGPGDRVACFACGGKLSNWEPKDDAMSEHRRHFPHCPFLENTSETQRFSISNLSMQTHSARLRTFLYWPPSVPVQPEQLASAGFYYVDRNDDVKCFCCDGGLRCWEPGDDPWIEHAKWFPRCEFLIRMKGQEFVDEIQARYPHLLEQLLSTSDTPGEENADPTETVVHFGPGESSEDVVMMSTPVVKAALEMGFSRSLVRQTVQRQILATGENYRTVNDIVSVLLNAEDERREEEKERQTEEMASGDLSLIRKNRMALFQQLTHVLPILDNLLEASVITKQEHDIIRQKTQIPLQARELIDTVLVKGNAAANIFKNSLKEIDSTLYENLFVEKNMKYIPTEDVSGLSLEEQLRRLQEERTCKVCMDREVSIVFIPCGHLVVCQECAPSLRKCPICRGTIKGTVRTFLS

B1: TRAF2 (endogenous, MEFs) (enzyme, UniProt P39429 1-501)
chain: MAAASVTSPGSLELLQPGFSKTLLGTRLEAKYLCSACKNILRRPFQAQCGHRYCSFCLTSILSSGPQNCAACVYEGLYEEGISILESSSAFPDNAARREVESLPAVCPNDGCTWKGTLKEYESCHEGLCPFLLTECPACKGLVRLSEKEHHTEQECPKRSLSCQHCRAPCSHVDLEVHYEVCPKFPLTCDGCGKKKIPRETFQDHVRACSKCRVLCRFHTVGCSEMVETENLQDHELQRLREHLALLLSSFLEAQASPGTLNQVGPELLQRCQILEQKIATFENIVCVLNREVERVAVTAEACSRQHRLDQDKIEALSNKVQQLERSIGLKDLAMADLEQKVSELEVSTYDGVFIWKISDFTRKRQEAVAGRTPAIFSPAFYTSRYGYKMCLRVYLNGDGTGRGTHLSLFFVVMKGPNDALLQWPFNQKVTLMLLDHNNREHVIDAFRPDVTSSSFQRPVSDMNIASGCPLFCPVSKMEAKNSYVRDDAIFIKAIVDLTGL
B2: HOIL-1 (endogenous, MEFs) (enzyme, UniProt Q9WUB0 1-508)
chain: MDEKTKKAEEMALSLARAVAGGDEQAAIKYATWLAEQRVPLRVQVKPEVSPTQDIRLCVSVEDAYMHTVTIWLTVRPDMTVASLKDMVFLDYGFPPSLQQWVVGQRLARDQETLHSHGIRRNGDGAYLYLLSARNTSLNPQELQRQRQLRMLEDLGFKDLTLQSRGPLEPVLPKPRTNQEPGQPDAAPESPPVGWQCPGCTFINKPTRPGCEMCCRARPETYQIPASYQPDEEERARLAGEEEALRQYQQRKQQQQEGNYLQHVQLEQRSLVLNTEPTECPVCYSVLAPGEAVVLRECLHTFCRECLQGTIRNSQEAEVACPFIDSTYSCPGKLLEREIRALLSPEDYQRFLDLGVSIAENRSTLSYHCKTPDCRGWCFFEDDVNEFTCPVCTRVNCLLCKAIHEHMNCREYQDDLALRAQNDVAARQTTEMLKVMLQQGEAMHCPQCRIVVQKKDGCDWIRCTVCHTEICWVTKGPRWGPGGPGDTSGGCRCRVNGIPCHPSCQNCH
B3: Sharpin (endogenous, MEFs) (protein, UniProt Q91WA6 1-380)
chain: MSPPAGGAAVAADPASPVVLLAVHAAVRPLGAGQDAEAQPRKLQLIADPERPGRFRLGLLGTEPGAVSLEWPLEAICYTVRGPNQHELQPPPGGPGTFSVHFLDPEEAQQWAALVRDATAEGQNGSGSPAPAPAPAMCPISPPCSSMAQIPKATQPEVDLPQSSGNFKKEELATRLSQAIAGGDEKAAAQVAAVLAQHHVALNVQLMEAWFPPGPIRLQVTVEDATSVLSSSSSAHVSLKIHPHCSIAALQDQVFSEFGFPPAVQRWVIGRCLCMPERSLASYGVSQDGDPAFLYLLSAPREVSGQSLQNSKMDRKLGLFPQSLGLPHDLQPSSSSLPSPSQPGWSCPSCTFINASNRPGCEMCSTQRPCAWDPLAAAST

Target: Flag-NEMO (purified, wild type) (human) (UniProt Q9Y6K9)
Test: affinity purification with mass spectrometry; in vitro SILAC: heavy or light MEF cytosolic extracts incubated with Flag-NEMO protein (WT or UBDm) and ATP with or without His6-MAVSΔTM at 30°C for 1 hr; Flag immunoprecipitation; SDS-PAGE; nanoLC-MS/MS; only the target purified

Question: How did the binding turn out when “PLK1 (endogenous, MEF extract) (from UniProt Q07832 1-603) (enzyme)” was run?
Answer: binds

Question: “cIAP1 (endogenous, MEF extract) (from UniProt Q62210 1-612) (enzyme)” was tested. Which binding did it give?
Answer: binds

Question: How did the binding turn out when B1 was run?
Answer: binds

Question: With B2 as the molecule, how does the binding read?
Answer: binds

Question: Which binding does the source give for B3 here?
Answer: binds
